Measured values from publication PMC6515687.
Results are given in words; binding and its absence hold for the method and conditions named. Binding seen in cells or lysates may run through a third protein. These calls come from enrichment with a bait or labelling near it, and not all partners need be listed. For some of these results: No binding means not detected with the bait. Blank lines part the entries; values can stand above or below the molecule they belong to.

Protein sequences, listed by entry. Tags and fused reporters are not part of them.
UniProt Q501J6: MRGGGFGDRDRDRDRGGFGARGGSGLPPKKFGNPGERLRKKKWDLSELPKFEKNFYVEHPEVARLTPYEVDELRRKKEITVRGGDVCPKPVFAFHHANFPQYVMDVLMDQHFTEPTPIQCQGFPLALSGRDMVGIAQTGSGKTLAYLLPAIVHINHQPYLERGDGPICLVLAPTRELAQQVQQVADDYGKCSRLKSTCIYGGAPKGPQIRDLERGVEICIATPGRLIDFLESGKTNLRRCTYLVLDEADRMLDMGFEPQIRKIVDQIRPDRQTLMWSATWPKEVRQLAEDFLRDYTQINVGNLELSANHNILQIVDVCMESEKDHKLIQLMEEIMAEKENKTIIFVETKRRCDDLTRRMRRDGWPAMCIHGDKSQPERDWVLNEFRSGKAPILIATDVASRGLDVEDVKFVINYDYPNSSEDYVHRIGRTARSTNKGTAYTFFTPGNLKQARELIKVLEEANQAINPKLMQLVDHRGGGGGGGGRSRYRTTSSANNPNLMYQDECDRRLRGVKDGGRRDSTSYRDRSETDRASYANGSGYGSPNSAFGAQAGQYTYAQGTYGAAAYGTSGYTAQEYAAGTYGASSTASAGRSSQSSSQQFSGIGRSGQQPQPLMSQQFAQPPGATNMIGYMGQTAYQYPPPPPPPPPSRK
UniProt P70372: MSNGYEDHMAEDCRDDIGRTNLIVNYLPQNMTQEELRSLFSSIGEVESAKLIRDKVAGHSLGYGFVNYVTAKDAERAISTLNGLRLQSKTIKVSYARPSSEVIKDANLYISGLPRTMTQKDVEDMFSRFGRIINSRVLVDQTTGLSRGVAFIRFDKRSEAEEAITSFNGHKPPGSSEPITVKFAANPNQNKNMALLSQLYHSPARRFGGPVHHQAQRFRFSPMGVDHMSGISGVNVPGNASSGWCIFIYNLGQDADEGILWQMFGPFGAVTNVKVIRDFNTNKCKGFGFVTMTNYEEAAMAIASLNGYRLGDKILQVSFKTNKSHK
UniProt P29341: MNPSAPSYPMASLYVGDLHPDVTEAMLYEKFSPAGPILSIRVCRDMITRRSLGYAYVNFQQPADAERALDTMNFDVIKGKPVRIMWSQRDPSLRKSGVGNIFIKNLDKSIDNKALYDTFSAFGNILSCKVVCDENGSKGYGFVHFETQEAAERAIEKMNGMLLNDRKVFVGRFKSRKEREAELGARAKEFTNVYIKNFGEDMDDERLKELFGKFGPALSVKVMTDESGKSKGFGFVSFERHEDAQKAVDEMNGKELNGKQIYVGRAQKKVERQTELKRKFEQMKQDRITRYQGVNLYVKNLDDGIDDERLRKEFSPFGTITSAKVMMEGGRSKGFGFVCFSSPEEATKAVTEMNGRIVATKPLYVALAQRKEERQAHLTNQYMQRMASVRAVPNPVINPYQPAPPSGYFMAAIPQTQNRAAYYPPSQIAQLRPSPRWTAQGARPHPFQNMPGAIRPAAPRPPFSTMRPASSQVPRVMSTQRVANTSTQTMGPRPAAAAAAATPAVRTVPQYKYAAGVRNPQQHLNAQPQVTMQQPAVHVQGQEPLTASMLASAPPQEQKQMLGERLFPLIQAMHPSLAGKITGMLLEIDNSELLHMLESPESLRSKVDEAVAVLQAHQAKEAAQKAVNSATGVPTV
UniProt Q6PDM2: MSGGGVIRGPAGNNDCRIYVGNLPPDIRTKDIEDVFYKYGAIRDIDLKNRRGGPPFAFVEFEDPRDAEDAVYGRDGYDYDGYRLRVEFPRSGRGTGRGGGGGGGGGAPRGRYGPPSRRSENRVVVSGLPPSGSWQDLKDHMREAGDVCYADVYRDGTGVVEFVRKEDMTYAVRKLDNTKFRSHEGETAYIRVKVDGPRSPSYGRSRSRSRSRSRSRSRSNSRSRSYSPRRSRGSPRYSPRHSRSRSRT
UniProt Q9EPU0: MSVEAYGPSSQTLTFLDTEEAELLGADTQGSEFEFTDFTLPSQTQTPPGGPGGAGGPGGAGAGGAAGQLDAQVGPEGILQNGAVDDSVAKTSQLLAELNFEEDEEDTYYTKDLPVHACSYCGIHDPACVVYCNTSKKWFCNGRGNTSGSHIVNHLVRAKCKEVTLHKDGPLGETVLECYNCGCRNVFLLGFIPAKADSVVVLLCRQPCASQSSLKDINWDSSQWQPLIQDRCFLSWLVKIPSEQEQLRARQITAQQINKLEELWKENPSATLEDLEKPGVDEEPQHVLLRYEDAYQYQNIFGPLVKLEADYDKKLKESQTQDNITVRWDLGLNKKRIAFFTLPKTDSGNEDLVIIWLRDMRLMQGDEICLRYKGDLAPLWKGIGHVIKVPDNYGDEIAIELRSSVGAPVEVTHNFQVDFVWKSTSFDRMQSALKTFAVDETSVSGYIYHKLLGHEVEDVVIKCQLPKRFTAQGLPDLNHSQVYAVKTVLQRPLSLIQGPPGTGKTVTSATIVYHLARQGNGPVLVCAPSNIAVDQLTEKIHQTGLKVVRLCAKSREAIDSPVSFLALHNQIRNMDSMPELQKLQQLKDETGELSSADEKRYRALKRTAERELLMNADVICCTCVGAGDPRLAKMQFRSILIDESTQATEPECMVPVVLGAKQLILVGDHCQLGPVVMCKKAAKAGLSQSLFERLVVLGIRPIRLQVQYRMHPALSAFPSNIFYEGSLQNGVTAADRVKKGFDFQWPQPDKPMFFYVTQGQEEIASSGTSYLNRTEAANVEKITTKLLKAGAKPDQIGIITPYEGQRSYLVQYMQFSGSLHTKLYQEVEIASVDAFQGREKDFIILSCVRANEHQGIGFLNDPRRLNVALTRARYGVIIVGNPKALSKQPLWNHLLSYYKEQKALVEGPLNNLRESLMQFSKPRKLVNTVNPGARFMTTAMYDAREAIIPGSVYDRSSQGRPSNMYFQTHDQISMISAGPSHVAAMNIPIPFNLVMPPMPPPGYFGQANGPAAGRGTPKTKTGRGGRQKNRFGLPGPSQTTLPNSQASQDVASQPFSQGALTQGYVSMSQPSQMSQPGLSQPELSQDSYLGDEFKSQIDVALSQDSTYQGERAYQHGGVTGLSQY
UniProt Q9Z204: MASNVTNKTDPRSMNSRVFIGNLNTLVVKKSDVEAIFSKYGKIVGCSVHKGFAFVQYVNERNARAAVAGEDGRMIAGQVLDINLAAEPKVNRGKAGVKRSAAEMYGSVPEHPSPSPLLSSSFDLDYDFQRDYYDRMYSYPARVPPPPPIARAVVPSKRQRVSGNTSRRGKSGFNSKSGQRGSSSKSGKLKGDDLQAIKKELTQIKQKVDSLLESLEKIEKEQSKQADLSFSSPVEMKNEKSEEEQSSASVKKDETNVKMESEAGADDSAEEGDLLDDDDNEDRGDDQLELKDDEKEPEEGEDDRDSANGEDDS
UniProt P62317: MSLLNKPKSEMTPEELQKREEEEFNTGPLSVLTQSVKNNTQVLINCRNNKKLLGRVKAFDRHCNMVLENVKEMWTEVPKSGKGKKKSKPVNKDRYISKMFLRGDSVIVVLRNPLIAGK

What was measured:
[1] = target: T1, MOV10 (Moloney leukemia virus 10), endogenous, nuclear fraction of P10 mouse testis (mouse (endogenous in P10 testis)) (UniProt P23249); assay: affinity purification with mass spectrometry; endogenous MOV10 IP from nuclear lysate of P10 mouse testis in RIPA, CHAPS or gentle lysis buffer with 10 μg/ml RNase A/T1; proteins found in the original IP-MS and in at least one RNase-treated IP-MS
T1 sequence: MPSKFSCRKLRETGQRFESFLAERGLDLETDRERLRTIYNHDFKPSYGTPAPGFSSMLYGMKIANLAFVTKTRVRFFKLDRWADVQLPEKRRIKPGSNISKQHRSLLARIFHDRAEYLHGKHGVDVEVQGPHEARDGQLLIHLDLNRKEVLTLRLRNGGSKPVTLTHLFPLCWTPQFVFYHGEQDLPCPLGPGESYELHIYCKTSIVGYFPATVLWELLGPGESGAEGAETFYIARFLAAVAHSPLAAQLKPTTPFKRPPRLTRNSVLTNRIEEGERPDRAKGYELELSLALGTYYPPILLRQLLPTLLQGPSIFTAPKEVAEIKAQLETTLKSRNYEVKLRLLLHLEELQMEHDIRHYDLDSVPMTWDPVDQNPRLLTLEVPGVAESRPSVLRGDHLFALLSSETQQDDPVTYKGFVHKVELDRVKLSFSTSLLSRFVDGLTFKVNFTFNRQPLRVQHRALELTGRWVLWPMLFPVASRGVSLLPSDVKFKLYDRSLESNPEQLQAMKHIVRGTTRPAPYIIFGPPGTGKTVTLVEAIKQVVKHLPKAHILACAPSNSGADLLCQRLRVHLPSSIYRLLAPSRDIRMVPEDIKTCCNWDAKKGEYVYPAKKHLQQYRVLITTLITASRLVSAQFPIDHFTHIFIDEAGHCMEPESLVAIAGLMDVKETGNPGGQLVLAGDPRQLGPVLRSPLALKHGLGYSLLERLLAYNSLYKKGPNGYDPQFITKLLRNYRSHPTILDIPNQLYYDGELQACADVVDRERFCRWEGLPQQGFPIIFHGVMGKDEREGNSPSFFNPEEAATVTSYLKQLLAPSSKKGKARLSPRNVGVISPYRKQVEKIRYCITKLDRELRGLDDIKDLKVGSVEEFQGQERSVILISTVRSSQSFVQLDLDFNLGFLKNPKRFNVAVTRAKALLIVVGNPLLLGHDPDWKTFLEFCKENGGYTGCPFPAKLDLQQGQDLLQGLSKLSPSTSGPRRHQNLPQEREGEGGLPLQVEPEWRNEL

[2] = target: T1, MOV10 (Moloney leukemia virus 10), endogenous, nuclear fraction of P10 mouse testis (mouse (endogenous in P10 testis)); assay: affinity purification with mass spectrometry; endogenous MOV10 IP (rabbit anti-MOV10, Protein A agarose, overnight 4 °C) from nuclear lysate of P10 mouse testis in RIPA buffer without RNase; rabbit IgG control; SDS-PAGE, MS

Molecule: DDX17, endogenous, P10 mouse testis (from UniProt Q501J6 1-650)
- binding [1]: binds
- binding [2]: binds

Molecule: ELAVL1, endogenous, P10 mouse testis (from UniProt P70372 1-326)
- binding [2]: binds

Molecule: PABPC1, endogenous, P10 mouse testis (from UniProt P29341 1-636)
- binding [2]: binds

Molecule: SRSF1, endogenous, P10 mouse testis (from UniProt Q6PDM2 1-248)
- binding [1]: binds
- binding [2]: binds

Molecule: UPF1, endogenous, P10 mouse testis (from UniProt Q9EPU0 1-1124)
- binding [2]: binds

B2: DROSHA, endogenous, P10 mouse testis (protein, UniProt Q5HZJ0 1-1373)
chain: MQGNTCHRMSYHPGRGCPRGRGGHGARPSAPAFRPQNLRLLHPQQPPAQYQYEPPSAPSSSYSNSQAPSFMPPRPDFVPYPPPAAPSAQGPLPPCPVRPPYPNHQMRHPFPVPPCFPPMPPPMPCPNNPPASGAPPGQGTFPFMVPPPSMPHPPPPPVMPQQVNYQYPPGYSHSFPPPGFNSYQNNSSSFPPSANSSSTPHFRHLPPYSLPKAQNERRSPERLKHYDDHRHRDHSHGRGERHRSLERRERGRSPERRRPESRYRSDYDRGRTPPPRHRSYERSRERDRERHRHREARRSPSLERSYKKEYKRSGRSYALPVAPEPAGCTPELPGEMIKTTESWAPPPENVNHRSPSREKKRARWEEEKDRWSDSQGSGKEKNYTSIKEKEAEEVPPEKTEEEEEELLKPVWIRCTHSESYYSSDPMDQVGDSTVVGTSRLRDLYDKFEEELGNRQEKAKAARPPWEPPKTKLDEDLESSSESECETDDDSTCSSSSDSEVFDVIAEIKRKKAHPDRLHDELWYNDPGQMNDGPLCKCSAKARRTGIRHSIYPGEEAIKPCRPMTNNAGRLFHYRITVSPPTNFLTDRPTVIEYDDHEYIFEGFSMFAHAPLTNIPLCKVIRFNIDYTIHFIEEMMPENFCVKGLELFSLFLFRDILELYDWNLKGPLFEDSPPCCPRFHFMPRFVRFLPDGGKEVLSMHQILLYLLRCSKALVPEEEIANMLQWEELEWQKYAEECKGMIVTNPGTKPSSVRIDQLDREQFNPEVITFPIIVHFGIRPAQLSYAGDPQYQKLWKSYVKLRHLLANSPKVKQTDKQKLAQREEALQKIRQKNTMRREVTVELSSQGFWKTGIRSDVCQHAMMLPVLTHHIRYHQCLMHLDKLIGYTFQDRCLLQLAMTHPSHHLNFGMNPDHARNSLSNCGIRQPKYGDRKVHHMHMRKKGINTLINIMSRLGQDDPTPSRINHNERLEFLGDAVVEFLTSVHLYYLFPSLEEGGLATYRTAIVQNQHLAMLAKKLELDRFMLYAHGPDLCRESDLRHAMANCFEALIGAVYLEGSLEEAKQLFGRLLFNDPDLREVWLNYPLHPLQLQEPNTDRQLIETSPVLQKLTEFEEAIGVIFTHVRLLARAFTLRTVGFNHLTLGHNQRMEFLGDSIMQLVATEYLFIHFPDHHEGHLTLLRSSLVNNRTQAKVAEELGMQEYAITNDKTKRPVALRTKTLADLLESFIAALYIDKDLEYVHTFMNVCFFPRLKEFILNQDWNDPKSQLQQCCLTLRTEGKEPDIPLYKTLQTVGPSHARTYTVAVYFKGERIGCGKGPSIQQAEMGAAMDALEKYNFPQMAHQKRFIERKYRQELKEMRWEREHQEREPEEAEDIKK
- binding [2]: no binding

B4: SYNCRIP, endogenous, P10 mouse testis (protein, UniProt Q7TMK9 1-623)
chain: MATEHVNGNGTEEPMDTTSAVIHSENFQTLLDAGLPQKVAEKLDEIYVAGLVAHSDLDERAIEALKEFNEDGALAVLQQFKDSDLSHVQNKSAFLCGVMKTYRQREKQGTKVADSSKGPDEAKIKALLERTGYTLDVTTGQRKYGGPPPDSVYSGQQPSVGTEIFVGKIPRDLFEDELVPLFEKAGPIWDLRLMMDPLTGLNRGYAFVTFCTKEAAQEAVKLYNNHEIRSGKHIGVCISVANNRLFVGSIPKSKTKEQILEEFSKVTEGLTDVILYHQPDDKKKNRGFCFLEYEDHKTAAQARRRLMSGKVKVWGNVGTVEWADPIEDPDPEVMAKVKVLFVRNLANTVTEEILEKSFSQFGKLERVKKLKDYAFIHFDERDGAVKAMEEMNGKDLEGENIEIVFAKPPDQKRKERKAQRQAAKNQMYDDYYYYGPPHMPPPTRGRGRGGRGGYGYPPDYYGYEDYYDYYGYDYHNYRGGYEDPYYGYEDFQVGARGRGGRGARGAAPSRGRGAAPPRGRAGYSQRGGPGSARGVRGARGGAQQQRGRGVRGARGGRGGNVGGKRKADGYNQPDTKRRQTNNQNWGSQPIAQQPLQGGDHSGNYGYKSENQEFYQDTFGQQWK
- binding [2]: binds

Other lines, results leading:

- binding [2]: binds
Molecule: HNRNPC, endogenous, P10 mouse testis (from UniProt Q9Z204 1-313)

- binding [2]: binds
Molecule: SNRPD2, endogenous, P10 mouse testis (from UniProt P62317 1-118)

- binding [2]: no binding
B1: DGCR8, endogenous, P10 mouse testis (protein, UniProt Q9EQM6 1-773)
chain: METYESPSPLPREPAGEAMMENRACPFQVLPHEQSPPPPLQTSSDAEVMDVGSGGDGQSEPPADDPFNFYGASLLSKGSFSKGRLLIDPNCSGHSPRTARHAPAVRKFSPDLKLLKDVKISVSFTESCRSKDRKVLYTGVERSTRPECGQLLSPVSGDVHACPFGGSVGNGVGLGGESADKKDEENELDQEKRVEYAVLDELEDFTDNLELDEEGTGGFTAKAIVQRDRVDEEALNFSYEDDFDNDVDALLEEGLCAPKKRRMEEKYGGDSDHPSDGETSVQPMMTKIKTVLKSRGRPPTEPLPDGWIMTFHNSGVPVYLHRESRVVTWSRPYFLGTGSIRKHDPPLSSIPCLHYKKMKDNEEREQNCDLAPSGEVSPVKPLGRSAELDFPLEEPDSMGGDSGSMDEKDPLGAEAAAGALGQVKAKVEVCKDESVDLEEFRNYLEKRFDFEQVTVKKFRTWAERRQFNREMKRKQAESERPILPANQKLITLSVQDAPTKKEFVINPNGKSEVCILHEYMQRVLKVRPVYNFFECENPSEPFGASVTIDGVTYGSGTASSKKLAKNKAARATLEILIPDFVKQTSEEKPKDSEELEYFNHISIEDSRVYELTSKAGLLSPYQILHECLKRNHGMGDTSIKFEVVPGKNQKSEYVMACGKHTVRGWCKNKRVGKQLASQKILQLLHPHVKNWGSLLRMYGRESSKMVKQETSDKSVIELQQYAKKNRPNLHILSKLQEEMKRLAAEREETRKKPKMSIVASAQPGGEPLCTVDV

- binding [2]: binds
B3: SNRPA1, endogenous, P10 mouse testis (protein, UniProt P57784 1-255)
chain: MVKLTAELIEQAAQYTNAVRDRELDLRGYKIPVIENLGATLDQFDAIDFSDNEIRKLDGFPLLRRLKTLLVNNNRICRIGEGLDQALPCLTELILTNNSLVELGDLDPLASLKSLTYLSILRNPVTNKKHYRLYVIYKVPQVRVLDFQKVKLKERQEAEKMFKGKRGAQLAKDIARRSKTFNPGAGLPTDKKKGGPSAGDVEAIKNAIANASTLAEVERLKGLLQSGQIPGRERRSGPSDEGEEEIEDDTVTNGS
